Data published in PubChem BioAssay AID248 (DTP/NCI, 2004).
The list does not hold the whole screen: it gathers tests that were run many times, whatever their T/C, doses with no T/C, and many T/C values between a quarter and a half above the control. Other doses and runs of a compound stand elsewhere. T/C: endpoint of the treated group in % of that of the vehicle group. Some doses have a count of surviving animals in place of a T/C: the source holds a T/C of zero for them, seemingly a mark for toxic or unscored doses. Some doses without a T/C left all or most animals alive at the check, yet need not have been tolerated: the source hardly ever lists a survival T/C far under the control, and the zero likely stands for such cases as well. Counts of survivors are from the toxicity check (mostly the fifth day) where no day follows; animals may have died later. Schedules are NCI's codes, read here as Q, the interval in days (D) or hours (H), X, the number of doses. Some doses were run more than once; the results are listed from low to high. Some schedule codes hold Z or #, which are not explained here. Where survival is the endpoint, the PubChem record calls one and a half times the control and up active, and a quarter to a half above the control has no call in these data; cut-offs in other NCI protocols can differ. Some T/C values are followed by the survivors on the day toxicity was checked, most often the fifth; where none is given, no animal had died by that day. Additions like (4×) count equal records among those shown.

System: L1210 leukemia ip in BDF1 mice, survival T/C
Test: NCI In Vivo Anticancer Drug Screen. Data for tumor model L1210 Leukemia (intraperitoneal) in B6D2F1 (BDF1) mice
Conditions: T/C endpoint: mean survival time, higher T/C = longer survival
[1] = dose: 100.0 mg/kg/injection, schedule: Q01DX009 (ip), vehicle: Klucel (hydroxypropylcellulose) (HPC)
[2] = dose: 200.0 mg/kg/injection, schedule: Q01DX009 (ip), vehicle: Klucel (hydroxypropylcellulose) (HPC)
[3] = dose: 400.0 mg/kg/injection, schedule: Q01DX009 (ip), vehicle: Klucel (hydroxypropylcellulose) (HPC)
[4] = dose: 400.0 mg/kg/injection, schedule: Q04DX002 (ip), vehicle: saline with Tween-80
[5] = dose: 400.0 mg/kg/injection, schedule: Q04DX003 (ip), vehicle: Klucel (hydroxypropylcellulose) (HPC)
[6] = dose: 200.0 mg/kg/injection, schedule: Q04DX003 (ip), vehicle: saline with Tween-80
[7] = dose: 400.0 mg/kg/injection, schedule: Q04DX003 (ip), vehicle: saline with Tween-80
[8] = dose: 200.0 mg/kg/injection, schedule: Q04DX003 (ip), vehicle: saline
[9] = dose: 400.0 mg/kg/injection, schedule: Q04DX003 (ip), vehicle: saline
[10] = dose: 400.0 mg/kg/injection, schedule: Q01DX009 (ip), vehicle: saline with Tween-80
[11] = dose: 200.0 mg/kg/injection, schedule: Q04DX002 (ip), vehicle: Klucel (hydroxypropylcellulose) (HPC)
[12] = dose: 400.0 mg/kg/injection, schedule: Q04DX002 (ip), vehicle: Klucel (hydroxypropylcellulose) (HPC)
[13] = dose: 100.0 mg/kg/injection, schedule: Q01DX009 (ip), vehicle: saline with Tween-80
[14] = dose: 150.0 mg/kg/injection, schedule: Q01DX001 (ip), vehicle: saline
[15] = dose: 300.0 mg/kg/injection, schedule: Q01DX001 (ip), vehicle: saline

CCCN=Cc1ccccc1O.CCCN=Cc1ccccc1O.[Ni]
survivor count (dose: 300.0 mg/kg/injection, schedule: Q01DX001 (ip), vehicle: other): 1 of 6

COc1cc(C=C(C#N)C#N)ccc1O
survivor count (dose: 50.0 mg/kg/injection, schedule: Q01DX009 (ip), vehicle: Klucel (hydroxypropylcellulose) (HPC)): 2 of 6 | survivor count [1]: 0 of 6 | survivor count [2]: 0 of 6 | survivor count [3]: 0 of 6

C=C(C)CC(N)Cc1ccccc1 (centres undefined)
survivor count (dose: 25.0 mg/kg/injection, schedule: Q04DX002 (ip), vehicle: saline with Tween-80): 3 of 3 | survivor count (dose: 200.0 mg/kg/injection, schedule: Q04DX002 (ip), vehicle: saline with Tween-80): 0 of 3 | survivor count [4]: 0 of 3

CC1=Nc2cc(C)c(C)cc2N=C(C)C1
survivor count [3]: 0 of 6 | survivor count [5]: 2 of 6

CC1NC=NC1C(c1ccccc1)c1ccccc1 (centres undefined)
survivor count [6]: 1 of 6 | survivor count [7]: 1 of 6

NNCC(F)(F)C(F)(F)C(F)(F)C(F)(F)C(F)(F)C(F)(F)C(F)(F)C(F)F
survivor count (dose: 400.0 mg/kg/injection, schedule: Q01DX009 (ip), vehicle: DMSO): 4 of 6

CC(=O)CC(=O)Nc1cccc(O)c1
survivor count [1]: 6 of 6

O=C(O)C(O)Cc1ccccc1 (centres undefined)
T/C [8]: 128 % of control | survivor count [9]: 5 of 6

CC1(C)N=C(N)N=C(N)N1c1ccc(CCCCc2ccc(S(=O)(=O)F)cc2)cc1
survivor count (dose: 200.0 mg/kg/injection, schedule: Q01DX009 (ip), vehicle: saline): 0 of 6 | survivor count (dose: 400.0 mg/kg/injection, schedule: Q01DX009 (ip), vehicle: saline): 0 of 6

Cc1ccc(S(=O)(=O)OC2CC(C(=O)O)N(S(=O)(=O)c3ccc(C)cc3)C2)cc1 (centres undefined)
survivor count [10]: 6 of 6

COC1CC(O[C@H]2CC[C@@]3(C)[C@H](CC[C@@H]4[C@@H]3CC[C@]3(C)[C@@H](C5=CC(=O)OC5)[C@@H](OC(C)=O)C[C@]43O)C2)OC(C)C1O (some centres undefined)
survivor count (dose: 100.0 mg/kg/injection, schedule: Q01DX001 (ip), vehicle: saline): 0 of 6 | survivor count (dose: 200.0 mg/kg/injection, schedule: Q01DX001 (ip), vehicle: carboxymethylcellulose (CMC)): 2 of 6 | survivor count (dose: 200.0 mg/kg/injection, schedule: Q01DX001 (ip), vehicle: saline): 0 of 6 | survivor count (dose: 400.0 mg/kg/injection, schedule: Q01DX001 (ip), vehicle: carboxymethylcellulose (CMC)): 0 of 6 | survivor count (dose: 400.0 mg/kg/injection, schedule: Q01DX001 (ip), vehicle: saline): 0 of 6

COc1cc(C=Nc2ccc3c(c2)ncn3C)ccc1N(CCCl)CCCl
survivor count [11]: 3 of 3 | survivor count [12]: 0 of 3

CC1CN1C1=C(F)C(=O)C(N2CC2C)=C(F)C1=O (centres undefined)
survivor count (dose: 6.25 mg/kg/injection, schedule: Q04DX003 (ip), vehicle: Klucel (hydroxypropylcellulose) (HPC)): 1 of 6 | survivor count (dose: 7.0 mg/kg/injection, schedule: Q01DX009 (ip), vehicle: Klucel (hydroxypropylcellulose) (HPC)): 4 of 6 | survivor count (dose: 10.0 mg/kg/injection, schedule: Q01DX009 (ip), vehicle: Klucel (hydroxypropylcellulose) (HPC)): 2 of 6 | survivor count (dose: 12.5 mg/kg/injection, schedule: Q04DX003 (ip), vehicle: Klucel (hydroxypropylcellulose) (HPC)): 0 of 6 | survivor count (dose: 25.0 mg/kg/injection, schedule: Q04DX003 (ip), vehicle: Klucel (hydroxypropylcellulose) (HPC)): 0 of 6 | survivor count (dose: 50.0 mg/kg/injection, schedule: Q04DX003 (ip), vehicle: Klucel (hydroxypropylcellulose) (HPC)): 0 of 6 | survivor count (dose: 100.0 mg/kg/injection, schedule: Q04DX003 (ip), vehicle: Klucel (hydroxypropylcellulose) (HPC)): 0 of 6

Nc1ccc(N)cc1 (tested in a mixture with another compound)
survivor count (dose: 200.0 mg/kg/injection, schedule: Q01DX009 (ip), vehicle: DMSO): 4 of 6 | survivor count (dose: 400.0 mg/kg/injection, schedule: Q04DX003 (ip), vehicle: DMSO): 0 of 6

CCOC(CCC#N)c1ccccc1 (centres undefined)
survivor count (dose: 445.0 mg/kg/injection, schedule: Q01DX009 (ip), vehicle: saline with Tween-80): 3 of 6

OCc1ccc(OCc2ccccc2)c(OCc2ccccc2)c1
survivor count (dose: 200.0 mg/kg/injection, schedule: Q01DX009 (ip), vehicle: other): 6 of 6 | survivor count (dose: 400.0 mg/kg/injection, schedule: Q01DX009 (ip), vehicle: other): 3 of 6

C[C@H](C[P+](c1ccccc1)(c1ccccc1)c1ccccc1)[C@](OC(=O)c1ccccc1)(C(=O)c1ccccc1)c1ccccc1
survivor count (dose: 100.0 mg/kg/injection, schedule: Q01DX001 (ip), vehicle: saline with Tween-80): 0 of 6 | survivor count (dose: 200.0 mg/kg/injection, schedule: Q01DX001 (ip), vehicle: saline with Tween-80): 0 of 6 | survivor count (dose: 400.0 mg/kg/injection, schedule: Q01DX001 (ip), vehicle: saline with Tween-80): 0 of 6

CCOC(=O)Nc1nccs1
survivor count [7]: 1 of 6

CC1CCCCC12OCCO2 (centres undefined)
survivor count [10]: 3 of 6

CCCC(=O)N1C(C)CCC1C (centres undefined)
T/C [4]: 127 % of control

N=C(N)SCc1ccc(Cl)cc1N
survivor count (dose: 100.0 mg/kg/injection, schedule: Q04DX002 (ip), vehicle: Klucel (hydroxypropylcellulose) (HPC)): 2 of 3 | survivor count [11]: 0 of 3 | survivor count [12]: 0 of 3

Cc1cccc(C)c1NC(=O)N1CCN(C)CC1
survivor count [11]: 3 of 3 | survivor count [3]: 2 of 6 | survivor count [12]: 3 of 3

COC(=O)c1ccccc1NC(OC)c1cccc([N+](=O)[O-])c1 (centres undefined)
T/C (dose: 50.0 mg/kg/injection, schedule: Q01DX009 (ip), vehicle: saline with Tween-80): 95 (2×), 100, 101 % of control | T/C [13]: 92 [5 of 6 alive] and 98 % of control [2 of 3 alive] | survivor count [13]: 3 of 3 and 6 of 6 | T/C (dose: 200.0 mg/kg/injection, schedule: Q01DX009 (ip), vehicle: saline with Tween-80): 88, 90 [2 of 3 alive], 91, 93 % of control | survivor count [4]: 3 of 3

O=C1OC(c2ccccc2)=C/C1=C/c1ccccc1O
survivor count [10]: 3 of 6

[NH-]CC(=O)[N-]CC(=O)O.[NH-]CC(=O)[N-]CC(=O)O.[Ni]
survivor count (dose: 50.0 mg/kg/injection, schedule: Q01DX009 (ip), vehicle: saline): 3 of 6 | survivor count (dose: 100.0 mg/kg/injection, schedule: Q01DX009 (ip), vehicle: saline): 0 of 6 | survivor count [8]: 1 of 6 | survivor count [9]: 1 of 6

Cc1noc2c1ncc[n+]2[O-]
survivor count (dose: 100.0 mg/kg/injection, schedule: Q04DX003 (ip), vehicle: saline with Tween-80): 0 of 6 | survivor count [6]: 0 of 6 | survivor count [7]: 0 of 6

C=C(Cl)CSc1ncnc2nc[nH]c12
survivor count [14]: 2 of 6 | survivor count [15]: 1 of 6

Clc1c(Cl)c(CBr)c(Cl)c(CBr)c1Cl
survivor count [1]: 2 of 6 | survivor count [2]: 0 of 6 | survivor count [5]: 0 of 6

O=C(NCCCCCCCCCNC(=O)Nc1ccc(C2=NCCCN2)cc1)Nc1ccc(C2=NCCCN2)cc1
survivor count (dose: 30.0 mg/kg/injection, schedule: Q01DX Z (ip), vehicle: carboxymethylcellulose (CMC)): 6 of 6

[N-]=[N+]=C1N=C(Cl)N=C1c1ncn[nH]1
survivor count (dose: 200.0 mg/kg/injection, schedule: Q01DX001 (ip), vehicle: Klucel (hydroxypropylcellulose) (HPC)): 1 of 3

FC(F)(F)C(F)(OCCC[Si](Cl)(Cl)Cl)C(F)(F)F
survivor count (dose: 75.0 mg/kg/injection, schedule: Q01DX001 (ip), vehicle: saline): 0 of 6 | survivor count [14]: 0 of 6 | survivor count [15]: 0 of 6

O=[N+]([O-])c1ccc(C(Br)Br)cc1
survivor count [5]: 0 of 6
